# Reference: article PMC10079926
# Amino acid sequences for entries named in this document (tags omitted). A change or cut given only in a name is not applied to a line headed by its entry. Residues count along the entry.
# UniProt Q5GJ75: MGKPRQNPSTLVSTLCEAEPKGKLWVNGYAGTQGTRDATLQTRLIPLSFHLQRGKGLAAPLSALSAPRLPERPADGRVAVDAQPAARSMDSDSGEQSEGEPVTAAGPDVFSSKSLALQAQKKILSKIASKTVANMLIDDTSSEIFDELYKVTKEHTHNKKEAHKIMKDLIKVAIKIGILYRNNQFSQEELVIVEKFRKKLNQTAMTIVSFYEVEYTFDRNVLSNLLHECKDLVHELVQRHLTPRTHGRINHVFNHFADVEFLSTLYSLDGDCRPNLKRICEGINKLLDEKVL
# UniProt P19404, residues 33-249: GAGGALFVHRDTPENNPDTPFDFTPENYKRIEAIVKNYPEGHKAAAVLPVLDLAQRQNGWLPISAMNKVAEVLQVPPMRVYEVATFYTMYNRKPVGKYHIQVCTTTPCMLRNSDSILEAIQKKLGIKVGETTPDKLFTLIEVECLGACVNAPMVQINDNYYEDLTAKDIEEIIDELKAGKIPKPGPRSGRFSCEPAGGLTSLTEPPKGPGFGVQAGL
# UniProt O75947: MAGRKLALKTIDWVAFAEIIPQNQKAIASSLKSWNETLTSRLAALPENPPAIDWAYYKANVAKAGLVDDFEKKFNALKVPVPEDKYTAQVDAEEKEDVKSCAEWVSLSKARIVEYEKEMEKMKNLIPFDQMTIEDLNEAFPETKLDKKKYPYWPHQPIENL
# UniProt O00429: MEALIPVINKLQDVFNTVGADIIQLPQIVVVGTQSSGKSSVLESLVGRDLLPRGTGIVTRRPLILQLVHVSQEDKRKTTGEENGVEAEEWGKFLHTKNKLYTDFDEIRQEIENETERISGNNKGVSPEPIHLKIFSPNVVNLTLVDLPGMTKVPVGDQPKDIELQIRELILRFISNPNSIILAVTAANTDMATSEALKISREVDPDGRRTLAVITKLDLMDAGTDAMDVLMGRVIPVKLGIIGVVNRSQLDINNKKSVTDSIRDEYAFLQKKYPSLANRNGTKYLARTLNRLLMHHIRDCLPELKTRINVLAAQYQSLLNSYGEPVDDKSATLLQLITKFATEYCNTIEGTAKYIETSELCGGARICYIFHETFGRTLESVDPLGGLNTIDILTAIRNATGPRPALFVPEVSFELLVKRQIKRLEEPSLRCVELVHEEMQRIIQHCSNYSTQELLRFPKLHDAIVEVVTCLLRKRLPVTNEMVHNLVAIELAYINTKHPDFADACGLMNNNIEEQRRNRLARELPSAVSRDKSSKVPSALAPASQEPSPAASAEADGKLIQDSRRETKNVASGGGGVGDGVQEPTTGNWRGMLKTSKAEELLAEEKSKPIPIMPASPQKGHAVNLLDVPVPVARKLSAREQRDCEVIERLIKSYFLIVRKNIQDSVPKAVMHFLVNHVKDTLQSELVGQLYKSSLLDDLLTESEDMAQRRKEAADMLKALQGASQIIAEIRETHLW
# UniProt Q07812: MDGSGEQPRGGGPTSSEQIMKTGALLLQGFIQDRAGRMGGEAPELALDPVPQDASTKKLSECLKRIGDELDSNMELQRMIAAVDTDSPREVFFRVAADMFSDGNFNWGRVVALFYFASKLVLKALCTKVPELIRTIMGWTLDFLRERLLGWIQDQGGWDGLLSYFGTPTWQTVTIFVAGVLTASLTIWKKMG
# These are yes or no findings as the source states them, for the method shown. Binding seen in cells or lysates may run through a third protein. A result given as binding can be weak or reduced; the word gives no strength.
# Biological target: TIPE3-HA (full-length TIPE3, TNFAIP8L3) (UniProt Q5GJ75)
# Experiment: co-IP; co-IP/WB in Cal33 and HN6 cells expressing TIPE3-HA (or trTIPE3-HA, NT-HA); IP lysis buffer, antibody overnight at 4 °C, protein A/G Sepharose beads; anti-IgG as negative control
row,binding,Substance
1,binds,NDUFV2 (Complex I) (from UniProt P19404 33-249)
2,binds,ATP5H (Complex V) (from UniProt O75947 1-161)
3,no binding,DRP1 (dynamin-like protein) (from UniProt O00429 1-736) (enzyme)
4,binds,BAX (from UniProt Q07812 1-192)
